Laboratory results reported in patent US20250170101A1, “MONOACYLGLYCEROL LIPASE INHIBITORS AND USE THEREOF FOR THE TREATMENT AND MANAGEMENT OF PAIN AND RELATED CONDITIONS” (Psy Therapeutics, Inc., priority 2021, published 2025).
At least one read-out could not be matched to a standard name with certainty.

Assay: Pharmacokinetic study of compounds in mice, Example 25
Format: in vivo, male C57BL/6 mice
Settings: Brain, Oral
Method: Healthy male C57BL/6 mice (8-12 weeks old) weighing between 17 to 35 g were procured from Global, India. Temperature and humidity were maintained at 22±3° C. and 30-70%, respectively and illumination was controlled to give a sequence of 12 hr light and 12 hr dark cycle. Temperature and humidity were recorded by auto-controlled data logger system. All the animals were provided laboratory rodent diet. Reverse osmosis water treated with ultraviolet light was provided ad libitum.
Protocol A: Twenty-four male mice were divided into two groups as; Group 1: 30 mg/kg/IP; Plasma and brain; Number of animals=12; Animal #1-12. Group 2: 30 mg/kg/PO; Plasma and brain; Number of animals=12; Animal #13-24. Animals in Group 1 were administered intraperitoneally with solution formulation of PSY-05-00074-001 in 5% NMP, 5% Solutol HS-15 and 90% normal saline at 30 mg/kg dose. Animals in Group 2 were administered orally with solution formulation of PSY-05-00074-001 in 5% NMP, 5% Solutol HS-15 and 90% normal saline at 30 mg/kg dose. Blood samples (approximately 60 μL) were collected under light isoflurane anesthesia from retro orbital plexus at 0.25, 0.5, 1, 2, 4 and 8 hr (IP and PO). Plasma samples were separated by centrifugation of whole blood and stored below −70° C. until bioanalysis. Immediately after collection of blood from intraperitoneal and oral group animals, animals were euthanized with excess CO2 and brain samples were collected from set of two mice at each time point. […] All samples were processed for analysis by protein precipitation using acetonitrile and analyzed with fit-for-purpose LC/MS/MS method (LLOQ—2.02 ng/mL for plasma and 6.06 ng/g for brain). Pharmacokinetic parameters were calculated using the non-compartmental analysis tool of Phoenix WinNonlin®.
Protocol B: Thirty six mice were included into the study and divided in to three groups as Group 1 (n=12), Group 2 (n=12) and Group 3 (n=12) with n=2 mice per time-point design. […] Plasma and brain samples were quantified by fit-for-purpose LC-MS/MS method (LLOQ: 1.01 ng/mL for plasma and 2.02 ng/mL for brain). […]

SMILES: O=C(c1cc(O)ccc1F)N1CC2(CC(n3cc(C(F)(F)F)c(-c4ccccc4F)n3)C2)C1 (single isomer, unassigned) [Compound 473, (2-fluoro-5-hydroxyphenyl){6-[3-(o-fluorophenyl)-4-(trifluoromethyl)-1-pyrazolyl]-2-aza-2-spiro[3.3]heptyl}methanone]
- Cmax (5 mg/kg): 171.59 ng/g

SMILES: Cc1cnn(C2CC3(C2)CN(C(=O)c2cc(O)ccc2F)C3)c1-c1cc(F)ccc1F (single isomer, unassigned) [Compound 476, {6-[5-(2,5-difluorophenyl)-4-methyl-1-pyrazolyl]-2-aza-2-spiro[3.3]heptyl}(2-fluoro-5-hydroxyphenyl)methanone]
- Cmax (5 mg/kg): 72 ng/g

SMILES: Cc1cc(C2CC3(C2)CN(C(=O)c2cc(O)ccc2F)C3)n(-c2ccccc2C)n1 [Compound 74, (2-fluoro-5-hydroxyphenyl)(6-(3-methyl-1-(o-tolyl)-1H-pyrazol-5-yl)-2-azaspiro[3.3]heptan-2-yl)methanone]
- Cmax (30 mg/kg): 101.76 ng/g
